Experiment: general procedure: Fmoc solid-phase peptide synthesis
Settings: whole synthesis

LFKEILEKIKAKL [P17]
purity (crude or final not stated): greater than 99%

From patent US12365709B2 (INSTITUT NATIONAL UNI[…]-FRANCOIS CHAMPOLLION, priority 2017, dated 2025)
